Taken from: PubChem BioAssay AID1259308 (NCATS, 2017)
The whole screen tested about 59,000 reagents; shown is a part drawn at random. About 1,510 of them (2.6%) were called active. 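Calls use total luciferase alone and ignore viability, so some active siRNAs may act by altering cell number.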 Reagents against one gene are numbered here. Not all columns of the deposit are shown.

Screen: 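Knock-downs that increase output of a recombinant reporter protein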 (primary screen)
Cells: human HEK293 embryonic kidney cells stably expressing firefly luciferase (HEK-CMV-Luc2-Hygro)
Knock-down reagent: single siRNA against human genes, 0.8 pmol siRNA per well
Duration: 72 h
Measurement: 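Luciferase light (ONE-Glo) measured on one replicate plate set and viability (CellTiter-Glo) on the other, scaled to a negative control siRNA, with robust z-scores and luciferase per cell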
Reading the numbers: total luciferase, z-score: higher = more reporter protein produced
Call rule: 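Active when the median/MAD z-score for overall luciferase is greater than 3; a gene was taken forward for validation with new siRNAs if at least two of its three siRNAs passed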
Meaning of the calls: active = raised luciferase; inactive = no rise

total luciferase, z-score, by gene symbol and reagent
LRBA (LPS responsive beige-like anchor protein): #1 2.06 inactive; #2 -0.403 inactive; #3 0.125 inactive
ARK2C: #1 -0.097 inactive; #2 0.119 inactive; #3 0.916 inactive
SMPD1 (sphingomyelin phosphodiesterase 1): #1 1.48 inactive; #2 0.611 inactive; #3 0.0971 inactive
FTHL18P (ferritin heavy chain like 18, pseudogene): #1 -2 inactive; #2 -0.575 inactive; #3 0.445 inactive
MRPS11 (mitochondrial ribosomal protein S11): #1 -0.0229 inactive; #2 0.208 inactive; #3 0.342 inactive
L3MBTL4 (L3MBTL histone methyl-lysine binding protein 4): #1 3.89 active; #2 4.04 active; #3 -0.184 inactive
ANO8 (anoctamin 8): #1 0.649 inactive; #2 -0.757 inactive; #3 -0.673 inactive
PGM3 (phosphoglucomutase 3): #1 -0.211 inactive; #2 -0.193 inactive; #3 0.557 inactive
MRPL58 (mitochondrial ribosomal protein L58): #1 -0.437 inactive; #2 -0.0203 inactive; #3 -0.064 inactive
NR4A3 (nuclear receptor subfamily 4 group A member 3): #1 2.04 inactive; #2 1.24 inactive; #3 -0.248 inactive
DTNA (dystrobrevin alpha): #1 1.76 inactive; #2 -1.05 inactive; #3 -0.288 inactive
KCTD18 (potassium channel tetramerization domain containing 18): #1 -1.63 inactive; #2 -1.75 inactive; #3 0.967 inactive

10 entries from above, ordered by “total luciferase, z-score”, lowest first:
gene symbol	reagent	total luciferase, z-score	Outcome
FTHL18P (ferritin heavy chain like 18, pseudogene)	1	-2	inactive
FTHL18P (ferritin heavy chain like 18, pseudogene)	2	-0.575	inactive
ARK2C	1	-0.097	inactive
MRPS11 (mitochondrial ribosomal protein S11)	1	-0.0229	inactive
SMPD1 (sphingomyelin phosphodiesterase 1)	3	0.0971	inactive
ARK2C	2	0.119	inactive
FTHL18P (ferritin heavy chain like 18, pseudogene)	3	0.445	inactive
SMPD1 (sphingomyelin phosphodiesterase 1)	2	0.611	inactive
ARK2C	3	0.916	inactive
SMPD1 (sphingomyelin phosphodiesterase 1)	1	1.48	inactive

The listing continues:
total luciferase, z-score, by gene symbol and reagent
UNC79 (unc-79 subunit of NALCN channel complex): #1 0.665 inactive; #2 0.752 inactive; #3 -0.264 inactive
ERI2 (ERI1 exoribonuclease family member 2): #1 1.44 inactive; #2 0.754 inactive; #3 0.0974 inactive
COPS7B (COP9 signalosome subunit 7B): #1 0.14 inactive; #2 -1.1 inactive; #3 -0.145 inactive
SERPING1 (serpin family G member 1): #1 -2.28 inactive; #2 0.0945 inactive; #3 2.6 inactive
PCDHGB5 (protocadherin gamma subfamily B, 5): #1 -0.716 inactive; #2 -0.218 inactive; #3 0.0723 inactive
C15orf32 (chromosome 15 putative open reading frame 32): #1 0.00364 inactive; #2 1.72 inactive; #3 0.896 inactive
VAV1 (vav guanine nucleotide exchange factor 1): #1 4.24 active; #2 0.512 inactive; #3 2.68 inactive
